Results from PubChem BioAssay AID1347075 (National Center for Advancing Translational Sciences (NCATS), 2019).
In all, about 400,000 compounds went through this assay and about 5,500 (1.4%) were called active. The shares of active, inactive and inconclusive entries below differ from those in the screen. Calls follow the shape of the dose curve; as a rule, active = well fitted cell-killing curve with a large enough effect; inconclusive = small, poorly fitted or top-dose-only effect, or effect the other way; inactive = flat fitted curve, though single readings scatter. A potency beside an inconclusive call is a rough fit, not a confirmed value.

assay: qHTS assay for MDR1-selective chemotherapeutics: Primary screen using the parental adenocarcinoma cell KB-3-1; settings: KB-3-1 viability, CellTiter-Glo ATP luminescence, 72 h; activity change, negative = cytotoxic: at 46.1 µM (top of the series); also: nearly all actives have a fitted effect of over 60% in size
Text: A prime difficulty in effectively treating cancer is the development of cellular resistance to multiple structurally unrelated anticancer drugs, a phenomenon known as multidrug resistance (MDR). […] Numerous strategies to overcome P-gp-mediated MDR have been explored, including the design of drugs that evade recognition and efflux, and development of inhibitors to block efflux and restore drug accumulation. […] An alternative approach is to exploit resistance by identifying drugs that target MDR cells over the non-resistant parental cells from which they were selected. […] The development of MDR1-selective agents represents a new strategy for resolving multidrug resistance, as it remains a long-standing clinical challenge for cancer chemotherapy.
Our goal is to identify compounds that selectively kill P-gp-expressing MDR cells. We will identify MDR1-selective compounds by comparing toxicity of compounds in the screening library against parental, drug-naive (KB-3-1) adenocarcinoma cells as well as their drug-selected MDR sub-line (KB-V1). The differential toxicity of compounds against these two cell lines will be used to identify MDR1-selective compounds, whose cytotoxicity is potentiated, rather than diminished, by P-gp expression. This assay will be utilized to conduct a quantitative high-throughput screen (qHTS) in collaboration with the NIH Chemical Genomics Center to identify selective agents, and probe hits arising from the screen will be validated using secondary assays and characterized through a well-established follow-up research program. This screen was run against the entire NCGC library collection of about 400,000 compounds.
NIH Molecular Libraries Probe Production Network [MLPCN]
NIH Chemical Genomics Center [NCGC]
PI: Michael Gottesman PhD, National Cancer Institute, NIH
Briefly, 5 microL of media containing either KB-3-1 cells (columns 1-2, 4-48) are dispensed into Greiner white, treated solid-bottom 1536-well assay plates (media-only control is added to column 3). Compounds are then transferred via Kalypsys pin tool equipped with 1536-pin array (10 nL slotted pins, V&P Scientific, San Diego, CA). Following addition of compound, the plates are incubated at 37 degrees C for 72 hours. CellTiter-Glo (2.5 µL/well) is then added, and the plates are read in a ViewLux reader (Perkin-Elmer, clear luminescence filter, 1 second exposure, 1x binning) following a 10 minute incubation. All cells are dispensed in DMEM phenol-red free media containing 10% FBS.
Library plates were screened starting from the lowest and proceeding to the highest concentration. Vehicle-only plates, with DMSO being pin-transferred to columns 5-48, will be inserted uniformly at the beginning and the end of each library in order to monitor and record any shifts in the background, which can be affected by reagent dispensers or loss in enzyme activity over time. Screening data will be corrected, normalized, and concentration-effect relationships will be derived by using publicly-available NCGC, NCATS curve fitting algorithms (http://ncgc.nih.gov/pub/openhts).
% is scaled to controls: 0 for no effect and ±100 for the full control effect; potency is read from the fitted curve at half-maximal effect.

| SMILES | Potency | activity change, negative = cytotoxic |
| --- | --- | --- |
| COc1ccc(-c2nc(CS(=O)CC(=O)NCc3ccc4c(c3)OCO4)c(C)o2)cc1OC (configuration not stated) | inconclusive: 20.6 µM [rising, partial curve] | – |
| COc1cccc2cc(-c3cc(=O)oc4cc(C)c(OCC(C)=O)cc34)oc12 | inconclusive: 0.0082 µM [rising, full curve] | – |
| COc1ccc(N(C)S(=O)(=O)c2cccc(C(=O)N3CCN(c4cccc(C)c4C)CC3)c2)cc1 | active: 16.4 µM | – |
| Cc1cccc(CN2C(=O)N/C(=C/c3cc(C)n(-c4cc(C)ccn4)c3C)C2=O)c1 | inconclusive: 32.6 µM [cytotoxic, partial curve, poor fit] | – |
| COc1ccc(/C=C(/NC(=O)c2ccccc2)c2nc3ccc(Cl)cc3[nH]2)cc1OC | inconclusive: 29.1 µM [cytotoxic, single point] | – |
| O=C(N/N=C/c1ccsc1)c1cc(-c2cccs2)nc2ccccc12 | inconclusive: 18.4 µM [cytotoxic, single point] | – |
| Cc1ccc(O)c(-c2n[nH]c3c2C(c2ccc(F)cc2)N(Cc2ccco2)C3=O)c1 (configuration not stated) | inconclusive: 0.0065 µM [cytotoxic, full curve] | – |
| Cc1cc(Cl)ccc1NC(=O)CN1C(=O)NC2(CCCc3ccccc32)C1=O (configuration not stated) | inconclusive: 20.6 µM [cytotoxic, partial curve, poor fit] | – |
| CC(C)Oc1ccc(F)cc1-c1cc(C(=O)NCc2cc(C(F)(F)F)cc(C(F)(F)F)c2)[nH]n1 | inconclusive: 29.1 µM [cytotoxic, single point] | – |
| Cc1nnsc1NC(=O)OCc1ccc(C(F)(F)F)cc1 | inconclusive: 20.6 µM [cytotoxic, single point] | – |
| CCc1ccc(S(=O)(=O)c2nnn3c2nc(NCc2ccccc2)c2cc(Cl)ccc23)cc1 | – | inactive: 1.54% |
| CN(CC(=O)Nc1cccc(F)c1)C(=O)c1ccc(COc2ccccc2)cc1 | inconclusive: 29.1 µM [cytotoxic, partial curve, poor fit] | – |
| O=C(Nc1ccccc1)c1ccc(-c2ccccc2Cl)o1 | – | inactive: 2.92% |
| COc1cc(-c2ccc3c(=O)c4ccccc4n(C)c3c2)cc(OC)c1OC | inconclusive: 29.1 µM [cytotoxic, single point] | – |
| COc1cccc(N2CC(NS(=O)(=O)c3ccc4ccccc4c3)CC2=O)c1 (configuration not stated) | – | inactive: -2.43% |
| c1ccc(-c2nc(NCC3CC3)nc3ccsc23)cc1 | – | inactive: 0% |
| N#Cc1c(-c2ccc3c(c2)OCO3)cc[nH]c1=O | inconclusive: 29.1 µM [cytotoxic, single point] | – |
| CCOC(=O)c1[nH]c(C)c(C(=O)OCC(=O)N2CCc3ccccc32)c1C | – | inactive: -3.66% |
| CCC(C(=O)NC1CCCC1)N(Cc1ccccc1Cl)C(=O)c1snc(C(N)=O)c1N (configuration not stated) | inconclusive: 29.1 µM [cytotoxic, single point] | – |
| O=C(/C=C/c1cccs1)c1cc(Br)ccc1OC(=O)N1CCOCC1 | inconclusive: 23.1 µM [cytotoxic, single point] | – |
| CC(C)C[C@H]1CNC(=O)C(=O)N1C[C@@H]1CCCN1C[C@H](Cc1ccc(O)cc1)N1C[C@H](Cc2ccccc2)N(CC2CCCCCC2)C(=O)C1=O | inconclusive: 29.1 µM [cytotoxic, single point] | – |

Record cards, as listed above.
CC(C)Oc1ccc(F)cc1-c1cc(C(=O)NCc2cc(C(F)(F)F)cc(C(F)(F)F)c2)[nH]n1 in the list: Potency: inconclusive: 29.1 µM [cytotoxic, single point]
COc1cccc(N2CC(NS(=O)(=O)c3ccc4ccccc4c3)CC2=O)c1 (configuration not stated) in the list: activity change, negative = cytotoxic: inactive: -2.43%

Additional entries.

| SMILES | Potency | activity change, negative = cytotoxic |
| --- | --- | --- |
| COc1ccc(NC(=O)C2CC3CCC2C3)c(OC)c1 (configuration not stated) | – | inactive: -1.66% |
| COc1ccc(CCNC(=O)c2coc(=O)c(Br)c2)cc1 | inconclusive: 23.1 µM [cytotoxic, single point] | – |
| CN(C)c1ccc(-c2nn3c(-c4ccccc4Cl)nnc3s2)cc1 | active: 0.58 µM | – |
| OC1(c2ccc(Cl)c(Cl)c2)C[n+]2ccccc2N1Cc1ccccc1 (configuration not stated) | inconclusive: 29.1 µM [cytotoxic, single point] | – |
| OC[C@@H]1CN(CCN2CCOCC2)C[C@H](n2cnc3c(NC4CC4)ncnc32)O1 | – | inactive: 0.0204% |
| Cc1cc(Cl)c(S(=O)(=O)Nc2cccc(O)c2)cc1OCC(N)=O | inconclusive: 3.26 µM [cytotoxic, partial curve, poor fit] | – |
| COc1ccc(Cn2c(C(=O)O)c(CNC3CCCCC3)c3ccc(C)cc32)cc1 | inconclusive: 18.4 µM [cytotoxic, single point] | – |
| CCn1c(CNC(=O)c2cccs2)nnc1SCC(=O)Nc1cc(Cl)ccc1C | inconclusive: 29.1 µM [cytotoxic, single point] | – |
| COc1cccc(C2C=C(c3ccc(Br)s3)Nc3ncnn32)c1OC (configuration not stated) | inconclusive: 29.1 µM [cytotoxic, single point] | – |
| COc1ccc(Cl)cc1NC(=O)CN1Cc2ccccc2C1=O | inconclusive: 20.6 µM [cytotoxic, partial curve, poor fit] | – |
| O=C(Cc1nnc(NC(=O)Nc2ccc(F)cc2)s1)NCc1ccccc1 | – | inactive: 1.97% |
| CCN1CCc2c(sc(NC(=O)c3ccc(S(=O)(=O)N4CCCCCC4)cc3)c2C(=O)NC)C1 | inconclusive: 18.4 µM [rising, partial curve, poor fit] | – |
| Cc1cccc(CNC(=O)CN2C(=O)CCn3nc(-c4cn(C)c5ccccc45)cc32)c1 | – | inactive: 7.68% |
| Cc1ccc(SCc2nc(-c3ccc(C(=O)NCC(C)c4ccccc4)cc3)oc2C)cc1 (configuration not stated) | inconclusive: 10.3 µM [cytotoxic, partial curve, poor fit] | – |
| CCOc1ccc(-c2cn(-c3ccccc3OC)c(=S)[nH]2)cc1 | inconclusive: 25.9 µM [cytotoxic, single point] | – |
| CN(C)c1nc(N)nc(CSc2nnnn2C)n1 | – | inactive: 7.48% |
| CC(C)C(=O)Nc1sc2c(c1-c1nc3ccccc3[nH]1)CCCC2 | – | inactive: -0.914% |
| Cc1[nH]c2ccccc2c1/C=N/NC(=O)C1CC1(c1ccccc1)c1ccccc1 (configuration not stated) | inconclusive: 32.6 µM [cytotoxic, single point] | – |
| CO[C@H]1CN(C)C(=O)c2ccc(NC(=O)C3CCC3)cc2OC[C@H](C)N(Cc2ccc(F)cc2)C[C@@H]1C | – | inconclusive: -4.37% |
| CCOC(=O)c1[nH]c(C)c(C(=O)Nc2ccc(C)c(F)c2)c1C | inconclusive: 29.1 µM [cytotoxic, single point] | – |
| COc1ccc(C(=O)NC(=S)NNC(=O)c2ccccc2C)cc1 | inconclusive: 23.1 µM [cytotoxic, single point] | – |
